Results from the supplement of paper PMC11237882.
The other results are listed elsewhere or left out. Values are worked out from sequencing counts and are noisy.

T1: Homer1 EVH1 domain
T1 chain: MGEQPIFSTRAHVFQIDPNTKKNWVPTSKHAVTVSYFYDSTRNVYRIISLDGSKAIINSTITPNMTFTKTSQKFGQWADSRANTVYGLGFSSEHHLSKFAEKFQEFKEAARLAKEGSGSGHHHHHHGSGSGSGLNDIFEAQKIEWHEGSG


Molecular target: T1, Homer1 EVH1 domain
Experiment: enrichment score (AUC of log2 frequency ratio across FACS sorting rounds) (log2 AUC); higher = stronger enrichment for Homer1 EVH1 binding

| Binder | enrichment score |
| --- | --- |
| ELGMEGKVIKTQNLAALLHAIARRPKGQQLAWDFVR | 0.194 |
| QVVALSSWCLLRDSIYYTLSVIALIVFIYDEKVSWW | 0.124 |
| MEVKNFAVWDYVVFAALFFISSGIGVFFTIKERKKA | 5.13 |
| LVASGCFLLIVLSYVSIVCSILRIHTSEGRHRAFQT | 1.85 |
| QTRLEADPGPPAHFRSRPQRREVRPRRRPLRYPCFQ | 3.2 |
| KRKAPFFASDFYDALNIQALSAILFIYLATVTNAIT | 1.44 |
| TKSKTSPVVSGSSSKSTTLPRPRPTRPSLLRRARLG | -0.66 |
| QLDYGVQFTSSRKFFTISPIILYFLASFYTKYDPTH | -2.69 |
| AQIVLPALFVGLALVFSLIVPPFGHYPALRLSPTMY | 4.96 |
| PFGDSRMYNITFTKVLSVCVWVIMAVLSLPNIILTN | 3.56 |
| SHRMEMWLLILVAYMFQRNVNSVHMPTKAVDPEAFM | 0.355 |
| LVCVAVWLAVTTQCLPTAIFAATGIQRNRTVCYDLS | -0.57 |
| ILLTNLFKALTLPGSSENEYIMKAIMRSFSLLLEAI | 0.189 |
| PQFFIVYWLAPSLGILLMILMFSFFLPWLHNHHTIN | 2.91 |
| YIYRVIRTTGYLLFILHINACVYYWASNYEGIGTTR | -0.0143 |
| LITVMLAFIMYMTLRNATQQKDMVENPEPPSGVRCC | 2.72 |
| PTTLHLHMIFLRGMLTLGCTLYIVWATLYRCALDIM | -3.25 |
| SQVLFERPGIWKDLKTMGSVSLSIFFITLLVLGRQN | 1.47 |
| MVSVNSSHCFYNDSFKYTLYGCMFSMVFVLGLISNC | -0.302 |
| LAIILTSLIDLINYIFFTGSLWSILLMIGILRRRYQ | -3.4 |
| YPEIKSLMKPDPNLIWIIIMMVLTQLGAFYIVKDLD | 2.82 |
| GTAQQPRLFVGMILILIFAEVLGLYGLIVALILSTK | 1.42 |
| MRYSVPILILLYLCYKFWPGMMDELSELREFYDPDT | 0.288 |
| YFCDVYPLLKLACSNIHMIGLLVIANSGLIALVTFL | 2.84 |
| NSNKLKGMAQSIFMAGILIGGLVLGDLSDRFGRRPI | 3.96 |
| SKSLTWIHLLVIIGSILSYFLFAIVFGAMCVTCNPP | 0.421 |
| LVIFLFPLFITVLSYGCILATILCMPTGKQKAFSTC | 2.06 |
| YYVSSTVAYAIGMILTFVVLVLMKKGQPALLYLVPW | 0.157 |

Reformatted as comma-separated lines: entries from further up.
Binder,enrichment score
KRKAPFFASDFYDALNIQALSAILFIYLATVTNAIT,1.44
TKSKTSPVVSGSSSKSTTLPRPRPTRPSLLRRARLG,-0.66
